Measurements published in patent publication US9101616B2, “Aryl substituted carboxamide derivatives as calcium or sodium channel blockers” (RaQualia Pharma Inc., priority 2009, dated 2015).
Some entries share one result that the patent states for a list of compounds.

What follows are compounds tested on human NaV1.3 or human NaV1.7 channels (assay: NaV1.3 FRET or NaV1.7 FRET Assays (result not assigned to one channel)). Conditions: which one not given.
Assay type: cell-based

| Structure (SMILES) | IC50 |
| --- | --- |
| C[C@@H](NC(=O)C1CC1c1ccc(C(C)(C)C)cc1)c1ccc(OCC(F)(F)F)cn1 (stereo in doubt) [Example 12, trans-2-(4-tert-butylphenyl)-N-((R)-1-(5-(2,2,2-trifluoroethoxy)pyridin-2-yl)ethyl)cyclopropanecarboxamide] | ≤ 1000 nM |
| C[C@@H](NC(=O)C1CC1c1ccc(C(C)(C)C)cc1)c1ccc(OCC2CC2)cn1 (stereo in doubt) [Example 62, trans-2-(4-tert-butylphenyl)-N-((R)-1-(5-(cyclopropylmethoxy)pyridin-2-yl)ethyl)cyclopropane-carboxamide] | ≤ 1000 nM |
| C[C@@H](NC(=O)C1CC1c1cc2ccccc2[nH]1)c1ccc(OCC(F)(F)F)cn1 (stereo in doubt) [Example 124, trans-2-(1H-indol-2-yl)-N-((R)-1-(5-(2,2,2-trifluoroethoxy)pyridin-2-yl)ethyl)cyclopropanecarboxamide] | ≤ 1000 nM |
| C[C@@H](NC(=O)C1CC1c1cc2cc(F)ccc2[nH]1)c1ccc(OCC(F)(F)F)cn1 (stereo in doubt) [Example 125, trans-2-(5-fluoro-1H-indol-2-yl)-N-((R)-1-(5-(2,2,2-trifluoroethoxy)pyridin-2-yl)ethyl)cyclopropanecarboxamide] | ≤ 1000 nM |
| C[C@@H](NC(=O)C1CC1c1ccc2cc[nH]c2c1)c1ccc(OCC(F)(F)F)nc1 (stereo in doubt) [Example 147, trans-2-(1H-indol-6-yl)-N-((R)-1-(6-(2,2,2-trifluoroethoxy)pyridin-3-yl)ethyl)cyclopropanecarboxamide] | ≤ 1000 nM |
| C[C@@H](NC(=O)C1CC1COc1ccc(Cl)cc1)c1ccc(OCC(F)(F)F)cn1 (stereo in doubt) [Example 169, trans-2-((4-chlorophenoxy)methyl)-N-((R)-1-(5-(2,2,2-trifluoroethoxy)pyridin-2-yl)ethyl)cyclopropanecarboxamide] | ≤ 1000 nM |
| C[C@@H](NC(=O)C1CC1COc1ccc(Cl)cc1)c1cnc(OCC(F)(F)F)cn1 (stereo in doubt) [Example 175, trans-2-((4-chlorophenoxy)methyl)-N-((R)-1-(5-(2,2,2-trifluoroethoxy)pyrazin-2-yl)ethyl)cyclopropanecarboxamide] | ≤ 1000 nM |
| C[C@@H](NC(=O)C1CC1Cn1ccc2ccccc21)c1ccc(OCC(F)(F)F)cn1 (stereo in doubt) [Example 182, trans-2-((1H-indol-1-yl)methyl)-N-((R)-1-(5-(2,2,2-trifluoroethoxy)pyridin-2-yl)ethyl)cyclopropanecarboxamide] | ≤ 1000 nM |
| C[C@@H](NC(=O)C1CC1c1ccc2ccn(C)c2c1)c1ccc(OCC2CC2)cn1 (stereo in doubt) [Example 192, trans-N-((R)-1-(5-(cyclopropylmethoxy)pyridin-2-yl)ethyl)-2-(1-methyl-1H-indol-6-yl)cyclopropanecarboxamide] | ≤ 1000 nM |
| C[C@@H](NC(=O)C1CC1c1cc(F)cc(F)c1)c1cnc(OCC(F)(F)F)cn1 (stereo in doubt) [Example 194, trans-2-(3,5-difluorophenyl)-N-((R)-1-(5-(2,2,2-trifluoroethoxy)pyrazin-2-yl)ethyl)cyclopropanecarboxamide] | ≤ 1000 nM |
| C[C@@H](NC(=O)C1CC1c1cc(F)ccc1F)c1ccc(OCC(F)(F)F)cn1 (stereo in doubt) [Example 195, trans-2-(2,5-difluorophenyl)-N-((R)-1-(5-(2,2,2-trifluoroethoxy)pyridin-2-yl)ethyl)cyclopropanecarboxamide] | ≤ 1000 nM |
| C[C@@H](NC(=O)C1CC1c1cc(F)ccc1F)c1cnc(OCC(F)(F)F)cn1 (stereo in doubt) [Example 197, trans-2-(2,5-difluorophenyl)-N-((R)-1-(5-(2,2,2-trifluoroethoxy)pyrazin-2-yl)ethyl)cyclopropanecarboxamide] | ≤ 1000 nM |
| C[C@@H](NC(=O)C1CC1c1cccc2[nH]ccc12)c1ccc(OCC2CC2)cn1 (stereo in doubt) [Example 201, trans-N-((R)-1-(5-(cyclopropylmethoxy)pyridin-2-yl)ethyl)-2-(1H-indol-4-yl)cyclopropanecarboxamide] | ≤ 1000 nM |
| COc1ccc(C2CC2C(=O)N[C@H](C)c2ccc(OCC(F)(F)F)cn2)cc1C (stereo in doubt) [Example 202, trans-2-(4-methoxy-3-methylphenyl)-N-((R)-1-(5-(2,2,2-trifluoroethoxy)pyridin-2-yl)ethyl)cyclopropanecarboxamide] | ≤ 1000 nM |
| C[C@@H](NC(=O)C1CC1c1ccc2ccccc2n1)c1ccc(OCC(F)(F)F)nc1 (stereo in doubt) [Example 205, trans-2-(quinolin-2-yl)-N-((R)-1-(6-(2,2,2-trifluoroethoxy)pyridin-3-yl)ethyl)cyclopropanecarboxamide] | ≤ 1000 nM |
| C[C@@H](NC(=O)C1CC1c1ccc2cccnc2c1)c1ccc(OCC(F)(F)F)nc1 (stereo in doubt) [Example 206, trans-2-(quinolin-7-yl)-N-((R)-1-(6-(2,2,2-trifluoroethoxy)pyridin-3-yl)ethyl)cyclopropanecarboxamide] | ≤ 1000 nM |

| Structure (SMILES) | IC50 |
| --- | --- |
| C[C@@H](NC(=O)C1CC1c1ccc2ccn(C)c2c1)c1ccc(OCC(F)(F)F)nc1 (stereo in doubt) [Example 208, trans-2-(1-methyl-1H-indol-6-yl)-N-((R)-1-(6-(2,2,2-trifluoroethoxy)pyridin-3-yl)ethyl)cyclopropanecarboxamide] | ≤ 1000 nM |
| C[C@@H](NC(=O)C1CC1COc1ccc(Cl)cc1)c1ccc(OCC(F)(F)F)nc1 (stereo in doubt) [Example 209, trans-2-((4-chlorophenoxy)methyl)-N-((R)-1-(6-(2,2,2-trifluoroethoxy)pyridin-3-yl)ethyl)cyclopropanecarboxamide] | ≤ 1000 nM |
| C[C@@H](NC(=O)C1CC1c1cnc2ccccc2c1)c1ccc(OCC(F)(F)F)nc1 (stereo in doubt) [Example 211, trans-2-(quinolin-3-yl)-N-((R)-1-(6-(2,2,2-trifluoroethoxy)pyridin-3-yl)ethyl)cyclopropanecarboxamide] | ≤ 1000 nM |
| C[C@@H](NC(=O)C1CC1c1cccc2cc[nH]c12)c1ccc(OCC(F)(F)F)nc1 (stereo in doubt) [Example 212, trans-2-(1H-indol-7-yl)-N-((R)-1-(6-(2,2,2-trifluoroethoxy)pyridin-3-yl)ethyl)cyclopropanecarboxamide] | ≤ 1000 nM |
| C[C@@H](NC(=O)C1CC1c1ccc2ccn(CC3(C)COC3)c2c1)c1ccc(OCC(F)(F)F)nc1 (stereo in doubt) [Example 213, trans-2-(1-((3-methyloxetan-3-yl)methyl)-1H-indol-6-yl)-N-((R)-1-(6-(2,2,2-trifluoro-ethoxy)pyridin-3-yl)ethyl)cyclopropanecarboxamide] | ≤ 1000 nM |
| C[C@@H](NC(=O)C1CC1c1cccc2[nH]ccc12)c1ccc(OCC(F)(F)F)nc1 (stereo in doubt) [Example 214, trans-2-(1H-indol-4-yl)-N-((R)-1-(6-(2,2,2-trifluoroethoxy)pyridin-3-yl)ethyl)cyclopropanecarboxamide] | ≤ 1000 nM |
| C[C@@H](NC(=O)[C@@H]1C[C@H]1c1ccc(OCc2ccccc2)cc1)c1ccc(OCC(F)(F)F)cn1 (stereo in doubt) [Example 238, (1R*,2R*)-2-(4-(benzyloxy)phenyl)-N-((R)-1-(5-(2,2,2-trifluoroethoxy)pyridin-2-yl)ethyl)cyclopropanecarboxamide] | ≤ 1000 nM |
| C[C@@H](NC(=O)[C@H]1C[C@@H]1c1cccc(OCc2ccccc2)c1)c1ccc(OCC(F)(F)F)cn1 (stereo in doubt) [Example 240, (1S*,2S*)-2-(3-(benzyloxy)phenyl)-N-((R)-1-(5-(2,2,2-trifluoroethoxy)pyridin-2-yl)ethyl)cyclopropanecarboxamide] | ≤ 1000 nM |
| C[C@@H](NC(=O)[C@@H]1C[C@H]1c1cccc(OCc2ccccc2)c1)c1ccc(OCC(F)(F)F)cn1 (stereo in doubt) [Example 241, (1R*,2R*)-2-(3-(benzyloxy)phenyl)-N-((R)-1-(5-(2,2,2-trifluoroethoxy)pyridin-2-yl)ethyl)cyclopropanecarboxamide] | ≤ 1000 nM |
| C[C@H](NC(=O)[C@H]1C[C@@H]1c1cccc(OCc2ccccc2)c1)c1ccc(OCC(F)(F)F)cn1 (stereo in doubt) [Example 345, (1S*,2S*)-2-(3-(benzyloxy)phenyl)-N-((S)-1-(5-(2,2,2-trifluoroethoxy)pyridin-2-yl)ethyl)cyclopropanecarboxamide] | ≤ 1000 nM |
| C[C@H](NC(=O)[C@@H]1C[C@H]1c1cccc(OCc2ccccc2)c1)c1ccc(OCC(F)(F)F)cn1 (stereo in doubt) [Example 346, (1R*,2R*)-2-(3-(benzyloxy)phenyl)-N-((S)-1-(5-(2,2,2-trifluoroethoxy)pyridin-2-yl)ethyl)cyclopropanecarboxamide] | ≤ 1000 nM |
| C[C@H](NC(=O)[C@H]1C[C@@H]1c1ccc(OCc2ccccc2)cc1)c1ccc(OCC(F)(F)F)cn1 (stereo in doubt) [Example 347, (1S*,2S*)-2-(4-(benzyloxy)phenyl)-N-((S)-1-(5-(2,2,2-trifluoroethoxy)pyridin-2-yl)ethyl)cyclopropanecarboxamide] | ≤ 1000 nM |
| C[C@@H](NC(=O)C(Cc1cccc(C(F)(F)F)c1)NC(=O)OC(C)(C)C)c1ccc(OCC(F)(F)F)cn1 (stereo in doubt) [Example 377, tert-butyl ((S)-1-oxo-1-(((R)-1-(5-(2,2,2-trifluoroethoxy)pyridin-2-yl)ethyl)amino)-3-(3-(trifluoromethyl)phenyl)propan-2-yl)carbamate] | ≤ 1000 nM |
| C[C@@H](NC(=O)c1cc(C(C)(C)C)on1)c1ccc(OCC(F)(F)F)cn1 [Example 1, (R)-5-tert-butyl-N-(1-(5-(2,2,2-trifluoroethoxy)pyridin-2-yl)ethyl)isoxazole-3-carboxamide] | ≤ 1000 nM |
| C[C@@H](NC(=O)COc1ccc(C(F)(F)F)cc1)c1ccc(OCC(F)(F)F)cn1 [Example 3, (R)-N-(1-(5-(2,2,2-trifluoroethoxy)pyridin-2-yl)ethyl)-2-(4-(trifluoromethyl)phenoxy)acetamide] | ≤ 1000 nM |
| COc1cc(C(=O)N[C@H](C)c2ccc(OCC(F)(F)F)cn2)ccc1OCc1ccccc1 [Example 4, (R)-4-(benzyloxy)-3-methoxy-N-(1-(5-(2,2,2-trifluoroethoxy)pyridin-2-yl)ethyl)benzamide] | ≤ 1000 nM |
